Reference: the supplement of paper PMC5949888
Most values lie at the floor of the assay. Slopes are relative: functional sequences can read slightly below zero.

These substances were tested on Saccharomyces cerevisiae PS128 hsf1 delta, HSF1(1-493) fusion (assay: growth estimate (transactivation domain function in HSF1 fusion, heat-shock survival) (a.u. (slope of normalised read count over time)); higher = stronger growth at 37°C, i.e. more transactivation activity). Conditions: library: random library.

Substance	growth estimate
RQVRLDKDGSPFVIAAVIIR	< -0.25
FSYGSAYYQCDLSEPEHTRR	< -0.25
VMGLKEEFLKITPRSCDPP	< -0.25
QRETALGP	< -0.25
GLSDARPYCFFRRFFIWV	< -0.25
SHVHLRQGLAEIVAAFVTAF	< -0.25
PQE	< -0.25
ERFQRQRT	< -0.25
IVWCKVTPSIHSGNVTLCLS	< -0.25
VNVAGLRR	< -0.25
HVHDILEQTPGHVQMVDGII	< -0.25
TAPGPARWRVASV	< -0.25
TTGCRTLINDKTAI	< -0.25
YSLNN	< -0.25
LGPRLWAYVQGLPWVGHDGT	< -0.25
HGQSRNTQPGHRAEISHTAL	< -0.25
RETWLT	< -0.25
TTIAGYSLGVTSLASQAMGG	< -0.25
IIALGSGDDIFVSIRPLRYA	< -0.25
MHHDVFETPRIHEFGVVTPT	< -0.25
SSGKPLRSGRATSCCIGGPS	< -0.25
LKDPEPLGNERHTGRMRRPT	< -0.25
FDSRKAGKALQW	-0.234
NVGLRHYMPCYNEWMLCKGG	< -0.25
YSSEKEEG	< -0.25

Substance	growth estimate
PPPFCTGREYRPFYVVSCNP	< -0.25
LMWTLARLHAVELALEARAR	< -0.25
DCEGKYSMGSLDLSGQLRVR	< -0.25
AMDMNLGLPDAQDRGRITCD	-0.246
GDPPGGGPCRDRDQT	< -0.25
WSGWFSNRKPA	< -0.25
QPNTGTQRLIRHRQTVHWIN	< -0.25
VFEGARSPNCRPQTTTR	< -0.25
TCLKYAMQIKPQSVKCRPAT	< -0.25
PAEVPDRIASFVAARPGPWA	< -0.25
WRTCDSYHRQPPRIPSCGQT	-0.246
LVRMEFRRGHARVRQSEVGS	< -0.25
SDVKVSQATQVRR	< -0.25
NAGYYGARLPSSCASHLHRP	< -0.25
QSKACVRRELGAVRIGLFHA	< -0.25
NHL	< -0.25
RRACQTRY	< -0.25
GWSR	< -0.25
RTHEEHD	< -0.25
IGAVRLSLQLSVIEGLMQSA	< -0.25
MTRDLGAGTGRMSAK	< -0.25
VTRLMLLRRFMPIPFGKIRT	< -0.25
EVP	< -0.25
FLYWA	-0.25
GYSS	-0.209

Substance	growth estimate
GKCRADTYTEVG	< -0.25
ASLGNSIGGLTVVNCDFLLT	< -0.25
MGGESASEGIVNAYVHTIAQ	< -0.25
SRPER	< -0.25
GRLGT	< -0.25
VVISGIFVIYARA	< -0.25
GLIHSDKFTRTHGSGFVASW	< -0.25
VAHLPCGLSVAVMRGLLNIV	< -0.25
NRKRKIVLEANTYC	< -0.25
CSTIMPFVRGRRGLGSVC	< -0.25
PASPP	-0.243
RCVTESQ	< -0.25
AIVMLGTFY	< -0.25
YRIGLHDDRLLSLIGPHSAL	< -0.25
RHSQS	-0.228
TRLTCSTPCF	< -0.25
RQGSKVMPSAVWAPTRCGTE	< -0.25
GMAEDGQVNATLADACALSH	< -0.25
TLFQLVRIQWGGRTRGEANN	-0.243
LDGFSPKLGLRRKTAYRPPM	< -0.25
RTGVRDLSRAASASPNGGIS	< -0.25
RLFHVSSGSPSTQPRNPTRS	< -0.25
LLIVHCETKIKKGCSWSRWT	< -0.25
EQS	< -0.25
GLPRRMLPNCLLINEGSKGW	< -0.25

Part of the list above, as comma-separated lines.
Substance,growth estimate
AIVMLGTFY,< -0.25
YRIGLHDDRLLSLIGPHSAL,< -0.25
RHSQS,-0.228
TRLTCSTPCF,< -0.25
RQGSKVMPSAVWAPTRCGTE,< -0.25
GMAEDGQVNATLADACALSH,< -0.25
TLFQLVRIQWGGRTRGEANN,-0.243

Next part.

Substance	growth estimate
KCTKF	< -0.25
PGRELGVL	< -0.25
SGNPSKQRRRCTPN	< -0.25
PGRQHWHLASCADYRGLRPP	< -0.25
RRSRRSSRIPGYRMQCHTGR	< -0.25
ISWHREVLSASTFVNATPAS	< -0.25
TGRR	< -0.25
VLVHW	< -0.25
NKRAVRSVGPVSLGVHR	< -0.25
RELEKRVILRLTPG	< -0.25
KLRTLGPHELIP	-0.246
ILAQDYLEMH	< -0.25
CIGVHGIYCLINPGPGVTRM	< -0.25
PYSECPQLCFGLAAITQTWA	< -0.25
NLQLRPIESPACRLRGQGST	< -0.25
RVGIEQIKANIE	< -0.25
SMHVAACTCACFDPSHLAML	-0.193
ADVARPHQPTR	< -0.25
AWSPTVGLRRGCDPLSARTE	< -0.25
NPSIEHFFETSFGFLSGVYG	< -0.25
LTQD	< -0.25
GPLAGGCGVLHSSNRATGCS	< -0.25
CTVG	< -0.25
QVVVA	< -0.25
